According to the supplement of paper PMC11732987, “Enantioselective OTUD7B fragment discovery through chemoproteomics screening and high-throughput optimisation” (Communications Chemistry, 2025):
This is one part of the list. The data scatter; read single values as rough.

By UniProt entry, the sequences of proteins in these tests, tags left out. Where a name states a change or a piece, a line headed by the entry shows the natural chain unless it says otherwise. Residues count along the entry.
UniProt Q8NFC6, 2321-2346: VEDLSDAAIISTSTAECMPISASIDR
UniProt Q14012, 168-197: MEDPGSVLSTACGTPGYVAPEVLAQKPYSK
UniProt O75828: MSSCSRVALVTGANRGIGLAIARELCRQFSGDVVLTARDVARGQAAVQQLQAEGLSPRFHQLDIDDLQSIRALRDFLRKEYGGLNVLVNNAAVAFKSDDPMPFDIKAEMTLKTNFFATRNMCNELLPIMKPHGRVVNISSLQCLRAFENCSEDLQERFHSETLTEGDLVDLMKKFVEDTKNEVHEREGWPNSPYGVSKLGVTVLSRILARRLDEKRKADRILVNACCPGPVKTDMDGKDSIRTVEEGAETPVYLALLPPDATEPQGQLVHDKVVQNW
UniProt Q8N8R5: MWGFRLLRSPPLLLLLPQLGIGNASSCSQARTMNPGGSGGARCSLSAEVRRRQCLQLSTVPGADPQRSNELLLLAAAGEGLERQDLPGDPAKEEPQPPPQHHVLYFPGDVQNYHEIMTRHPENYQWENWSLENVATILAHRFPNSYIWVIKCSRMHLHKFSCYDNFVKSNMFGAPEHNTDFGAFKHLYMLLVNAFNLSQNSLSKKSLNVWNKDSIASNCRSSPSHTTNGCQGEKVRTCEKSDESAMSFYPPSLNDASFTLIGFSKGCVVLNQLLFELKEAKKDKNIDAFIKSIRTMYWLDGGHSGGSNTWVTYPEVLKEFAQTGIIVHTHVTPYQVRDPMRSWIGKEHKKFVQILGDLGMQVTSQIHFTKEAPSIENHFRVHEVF
UniProt Q9H0E9: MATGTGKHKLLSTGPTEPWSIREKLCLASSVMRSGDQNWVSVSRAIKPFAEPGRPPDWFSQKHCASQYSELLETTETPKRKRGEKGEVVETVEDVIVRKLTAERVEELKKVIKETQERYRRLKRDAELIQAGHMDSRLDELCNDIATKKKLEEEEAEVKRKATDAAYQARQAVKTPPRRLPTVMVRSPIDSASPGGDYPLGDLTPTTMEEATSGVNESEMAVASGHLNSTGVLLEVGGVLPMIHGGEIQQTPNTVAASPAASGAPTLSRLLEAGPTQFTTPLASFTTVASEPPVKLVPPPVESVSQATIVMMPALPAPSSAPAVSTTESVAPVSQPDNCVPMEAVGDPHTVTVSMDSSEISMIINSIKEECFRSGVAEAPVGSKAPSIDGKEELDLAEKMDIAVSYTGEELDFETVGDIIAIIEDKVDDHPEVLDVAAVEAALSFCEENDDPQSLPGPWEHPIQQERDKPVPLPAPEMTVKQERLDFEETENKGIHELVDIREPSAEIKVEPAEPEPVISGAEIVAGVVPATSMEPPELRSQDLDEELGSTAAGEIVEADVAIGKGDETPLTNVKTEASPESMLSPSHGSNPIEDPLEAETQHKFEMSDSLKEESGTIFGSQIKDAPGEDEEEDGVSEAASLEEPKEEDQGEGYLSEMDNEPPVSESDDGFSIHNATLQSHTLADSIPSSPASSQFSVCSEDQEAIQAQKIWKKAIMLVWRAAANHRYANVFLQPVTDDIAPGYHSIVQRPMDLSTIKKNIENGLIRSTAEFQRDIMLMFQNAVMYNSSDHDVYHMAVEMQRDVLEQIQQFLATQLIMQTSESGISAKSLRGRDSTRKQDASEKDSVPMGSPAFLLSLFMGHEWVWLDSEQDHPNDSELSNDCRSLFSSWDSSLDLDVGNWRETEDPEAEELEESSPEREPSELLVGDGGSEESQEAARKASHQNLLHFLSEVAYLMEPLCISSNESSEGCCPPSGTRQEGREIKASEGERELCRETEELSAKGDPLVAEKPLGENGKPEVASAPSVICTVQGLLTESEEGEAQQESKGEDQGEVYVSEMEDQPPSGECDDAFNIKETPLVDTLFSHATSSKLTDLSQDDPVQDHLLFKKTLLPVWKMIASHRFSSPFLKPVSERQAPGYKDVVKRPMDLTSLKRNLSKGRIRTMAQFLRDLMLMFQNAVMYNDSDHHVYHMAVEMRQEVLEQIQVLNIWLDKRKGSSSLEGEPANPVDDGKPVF
UniProt Q5T5Y3: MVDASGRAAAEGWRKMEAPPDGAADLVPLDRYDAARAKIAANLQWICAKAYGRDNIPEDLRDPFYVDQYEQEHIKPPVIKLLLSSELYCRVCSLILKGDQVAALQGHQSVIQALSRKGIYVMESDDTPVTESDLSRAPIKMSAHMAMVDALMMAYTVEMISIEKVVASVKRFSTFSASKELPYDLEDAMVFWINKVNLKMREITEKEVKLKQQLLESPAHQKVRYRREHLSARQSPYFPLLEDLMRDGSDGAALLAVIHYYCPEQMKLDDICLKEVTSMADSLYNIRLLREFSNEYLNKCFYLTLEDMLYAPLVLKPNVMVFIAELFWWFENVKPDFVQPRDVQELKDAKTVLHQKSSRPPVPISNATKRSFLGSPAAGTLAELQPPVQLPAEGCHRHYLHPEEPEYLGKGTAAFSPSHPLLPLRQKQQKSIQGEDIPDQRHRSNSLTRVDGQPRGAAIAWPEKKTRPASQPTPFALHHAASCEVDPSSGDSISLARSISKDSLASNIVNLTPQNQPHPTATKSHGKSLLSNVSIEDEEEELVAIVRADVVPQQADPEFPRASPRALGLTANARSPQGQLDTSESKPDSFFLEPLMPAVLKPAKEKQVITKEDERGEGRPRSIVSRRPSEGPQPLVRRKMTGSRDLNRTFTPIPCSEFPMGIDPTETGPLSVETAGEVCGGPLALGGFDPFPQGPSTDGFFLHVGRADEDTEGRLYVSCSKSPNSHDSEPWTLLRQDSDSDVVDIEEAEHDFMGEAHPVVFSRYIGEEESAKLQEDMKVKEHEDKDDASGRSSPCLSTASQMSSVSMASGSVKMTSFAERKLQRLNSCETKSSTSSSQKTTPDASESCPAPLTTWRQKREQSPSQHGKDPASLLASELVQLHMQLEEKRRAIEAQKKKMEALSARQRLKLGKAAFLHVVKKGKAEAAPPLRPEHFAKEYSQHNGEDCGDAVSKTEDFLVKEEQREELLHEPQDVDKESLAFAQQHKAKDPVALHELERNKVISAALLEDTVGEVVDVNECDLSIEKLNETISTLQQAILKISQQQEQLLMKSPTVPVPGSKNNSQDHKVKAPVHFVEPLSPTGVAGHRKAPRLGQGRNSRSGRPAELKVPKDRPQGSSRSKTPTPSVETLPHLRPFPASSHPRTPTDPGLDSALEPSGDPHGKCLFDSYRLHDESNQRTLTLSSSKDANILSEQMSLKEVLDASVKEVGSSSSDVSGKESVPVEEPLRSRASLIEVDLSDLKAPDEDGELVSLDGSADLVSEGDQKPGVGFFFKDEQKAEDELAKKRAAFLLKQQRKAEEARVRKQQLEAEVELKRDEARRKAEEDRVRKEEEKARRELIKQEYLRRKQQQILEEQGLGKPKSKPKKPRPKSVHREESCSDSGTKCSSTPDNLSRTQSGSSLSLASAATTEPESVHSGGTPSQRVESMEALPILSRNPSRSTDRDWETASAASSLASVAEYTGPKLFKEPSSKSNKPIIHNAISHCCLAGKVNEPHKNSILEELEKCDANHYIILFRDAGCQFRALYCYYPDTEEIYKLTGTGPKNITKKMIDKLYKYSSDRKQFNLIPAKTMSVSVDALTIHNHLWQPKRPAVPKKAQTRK
UniProt Q9Y6J0: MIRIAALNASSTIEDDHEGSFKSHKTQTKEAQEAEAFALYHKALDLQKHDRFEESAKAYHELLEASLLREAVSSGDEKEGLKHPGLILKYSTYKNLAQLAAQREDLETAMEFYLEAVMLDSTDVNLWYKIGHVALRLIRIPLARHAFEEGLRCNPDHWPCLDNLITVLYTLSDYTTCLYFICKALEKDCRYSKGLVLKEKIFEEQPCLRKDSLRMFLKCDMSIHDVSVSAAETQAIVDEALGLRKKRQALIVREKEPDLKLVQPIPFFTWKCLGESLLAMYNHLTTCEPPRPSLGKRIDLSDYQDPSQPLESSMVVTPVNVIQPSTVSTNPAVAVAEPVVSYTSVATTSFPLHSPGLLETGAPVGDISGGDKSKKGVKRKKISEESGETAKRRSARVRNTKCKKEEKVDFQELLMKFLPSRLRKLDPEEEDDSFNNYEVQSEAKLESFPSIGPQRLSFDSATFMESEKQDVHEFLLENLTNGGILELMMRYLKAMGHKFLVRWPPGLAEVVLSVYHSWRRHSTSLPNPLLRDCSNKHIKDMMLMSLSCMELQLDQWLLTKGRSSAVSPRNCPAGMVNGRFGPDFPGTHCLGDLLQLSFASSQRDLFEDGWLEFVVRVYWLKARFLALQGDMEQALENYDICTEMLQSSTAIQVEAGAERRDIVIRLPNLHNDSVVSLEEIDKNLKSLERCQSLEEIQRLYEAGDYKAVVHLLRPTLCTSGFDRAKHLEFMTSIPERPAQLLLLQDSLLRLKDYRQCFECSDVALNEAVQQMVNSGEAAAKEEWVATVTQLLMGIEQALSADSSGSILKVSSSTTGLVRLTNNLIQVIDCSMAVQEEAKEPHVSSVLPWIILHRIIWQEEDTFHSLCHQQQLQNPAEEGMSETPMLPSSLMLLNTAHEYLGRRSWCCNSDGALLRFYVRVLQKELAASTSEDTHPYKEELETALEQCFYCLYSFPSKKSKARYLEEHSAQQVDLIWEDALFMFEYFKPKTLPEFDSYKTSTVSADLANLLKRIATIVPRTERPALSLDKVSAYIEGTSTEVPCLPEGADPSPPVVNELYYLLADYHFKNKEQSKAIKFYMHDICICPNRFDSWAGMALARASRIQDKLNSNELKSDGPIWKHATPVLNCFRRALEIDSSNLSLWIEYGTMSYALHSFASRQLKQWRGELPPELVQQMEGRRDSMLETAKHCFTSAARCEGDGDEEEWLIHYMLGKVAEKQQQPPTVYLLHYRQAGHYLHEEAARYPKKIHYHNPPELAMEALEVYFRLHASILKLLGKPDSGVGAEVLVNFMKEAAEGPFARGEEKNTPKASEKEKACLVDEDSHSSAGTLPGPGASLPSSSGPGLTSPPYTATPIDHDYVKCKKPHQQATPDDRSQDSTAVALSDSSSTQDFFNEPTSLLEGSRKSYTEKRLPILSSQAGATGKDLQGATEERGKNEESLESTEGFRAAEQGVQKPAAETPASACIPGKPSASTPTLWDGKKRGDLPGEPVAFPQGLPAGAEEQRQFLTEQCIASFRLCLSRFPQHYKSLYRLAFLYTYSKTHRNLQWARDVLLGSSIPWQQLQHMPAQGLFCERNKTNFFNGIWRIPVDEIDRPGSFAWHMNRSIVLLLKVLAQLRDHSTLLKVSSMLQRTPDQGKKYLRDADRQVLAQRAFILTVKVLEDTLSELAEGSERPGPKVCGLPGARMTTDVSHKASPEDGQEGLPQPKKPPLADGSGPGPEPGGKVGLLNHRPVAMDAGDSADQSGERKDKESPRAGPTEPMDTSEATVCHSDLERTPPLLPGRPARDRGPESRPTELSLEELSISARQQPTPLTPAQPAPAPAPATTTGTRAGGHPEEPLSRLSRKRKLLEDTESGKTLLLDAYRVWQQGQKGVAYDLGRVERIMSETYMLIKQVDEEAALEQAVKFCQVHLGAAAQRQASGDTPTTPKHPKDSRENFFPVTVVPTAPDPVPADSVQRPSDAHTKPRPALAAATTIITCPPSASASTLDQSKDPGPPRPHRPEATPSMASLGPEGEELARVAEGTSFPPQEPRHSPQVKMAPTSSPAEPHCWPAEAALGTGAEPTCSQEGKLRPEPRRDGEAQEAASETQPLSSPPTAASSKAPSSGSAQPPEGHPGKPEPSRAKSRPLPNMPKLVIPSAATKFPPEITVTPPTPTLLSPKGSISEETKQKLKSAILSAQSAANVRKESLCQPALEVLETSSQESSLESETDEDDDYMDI
UniProt P46736: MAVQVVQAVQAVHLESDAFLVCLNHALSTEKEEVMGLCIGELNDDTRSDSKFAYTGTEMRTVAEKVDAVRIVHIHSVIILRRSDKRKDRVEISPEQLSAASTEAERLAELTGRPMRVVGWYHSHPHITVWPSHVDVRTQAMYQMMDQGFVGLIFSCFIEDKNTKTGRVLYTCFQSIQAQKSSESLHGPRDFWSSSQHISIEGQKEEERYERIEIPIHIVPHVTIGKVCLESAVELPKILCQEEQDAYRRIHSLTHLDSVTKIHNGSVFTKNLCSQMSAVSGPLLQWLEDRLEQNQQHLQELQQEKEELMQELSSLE
UniProt Q32NC0: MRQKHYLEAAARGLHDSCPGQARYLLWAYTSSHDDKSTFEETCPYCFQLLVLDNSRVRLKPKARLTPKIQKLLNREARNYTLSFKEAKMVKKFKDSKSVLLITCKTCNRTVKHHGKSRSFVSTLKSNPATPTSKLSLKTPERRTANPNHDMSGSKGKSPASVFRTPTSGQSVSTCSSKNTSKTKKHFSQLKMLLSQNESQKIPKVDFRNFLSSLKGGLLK

Columns and labels:
[1] = compound: ClCC(=O)N[C@@H]1CCCc2ccccc12; experiment: log2 mean competition ratio of IA-DTB cysteine labelling (DMSO/compound) (log2 ratio); higher = stronger cysteine engagement by compound; conditions: treatment time: 4 h, cell line lysate: HEK293T
Method: (§1)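 IA-DTB competitive cysteine chemoproteomics in HEK293T RIPA lysate. Lysates were treated with compound 29 or 30 at 50 or 200 µM for 4 h, then IA-DTB (500 µM, 1 h), trypsin-digested, NeutrAvidin-enriched and analysed by diaPASEF. Competition ratio = intensity DMSO / intensity compound (n=4 treated, n=64 DMSO); binding: mean log2 CR ≥ 1 and p ≤ 0.05 plus QC filters. Target is the cysteine site.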

[2] = compound: ClCC(=O)N[C@H]1CCCc2ccccc12; experiment: as above; conditions: treatment time: 4 h, cell line lysate: HEK293T
Method: as §1

Target	log2 mean competition ratio ([1]; 50 µM)	log2 mean competition ratio ([1]; 200 µM)	log2 mean competition ratio ([2]; 50 µM)	log2 mean competition ratio ([2]; 200 µM)
BOD1L1 C2337 (UniProt Q8NFC6)	0.0368	0.0867	0.0458	-0.0755
CAMK1 C179 (UniProt Q14012)	0.0679	0.149	0.557	0.0449
BRAT1 C487 (UniProt Q6PJG6)	0.223	0.432	-0.27	0.25
CAMKMT C281 (UniProt Q7Z624)	0.257	0.188	-0.153	0.371
CBR3 C122 (UniProt O75828)	0.0463	-0.0773	-0.0682	-0.122
BRWD3 C782	-0.335	0.105	-0.331	0.35
C2orf69 C219 (UniProt Q8N8R5)	-0.00677	0.245	0.0498	0.213
BRD8 C142 (UniProt Q9H0E9)	-0.159	0.164	-0.183	0.143
CAND1 C356	0.0463	-0.0237	-0.231	-0.086
CAMSAP1 C947 (UniProt Q5T5Y3)	-0.0496	0.0607	-0.372	-0.251
BRPF1 C992	0.0379	-0.139	0.467	0.287
BORA C526 (UniProt Q6PGQ7)	0.305	-0.168	-0.396	-0.676
BOD1L1 C1947 (UniProt Q8NFC6)	-0.203	0.0328	0.198	0.193
CARHSP1 C112	0.218	-0.808	-0.398	-0.438
CAPN15 C101 (UniProt O75808)	0.0198	0.348	-0.123	0.014
BOD1L1 C1729 (UniProt Q8NFC6)	-0.127	0.194	-0.13	0.0641
CAPN1 C11	-0.462	-0.215	-0.304	-0.0183
BRF1 C289 (UniProt Q92994)	0.28	-0.257	0.0844	-0.145
CABIN1 C1197 (UniProt Q9Y6J0)	-0.237	0.243	-0.116	0.0359
BRCC3 C240 (UniProt P46736)	0.014	0.157	-0.49	0.217
C18orf21 C18 (UniProt Q32NC0)	0.0884	0.0226	0.164	-0.0976

Four consecutive entries out of the list so far:
Target	log2 mean competition ratio ([1]; 50 µM)	log2 mean competition ratio ([1]; 200 µM)	log2 mean competition ratio ([2]; 50 µM)	log2 mean competition ratio ([2]; 200 µM)
BRWD3 C782	-0.335	0.105	-0.331	0.35
C2orf69 C219 (UniProt Q8N8R5)	-0.00677	0.245	0.0498	0.213
BRD8 C142 (UniProt Q9H0E9)	-0.159	0.164	-0.183	0.143
CAND1 C356	0.0463	-0.0237	-0.231	-0.086
